Reference: paper PMC8792056 (2022)
No constants are given. Whether binding was seen depends on the method and setting. Binding seen in cells or lysates may run through a third protein. Some results given as binding are weak or reduced against the parent protein; the word gives no strength. Sequences can lack the tags named with a protein. Values belong to the binder of their own block, whether it stands above or below them.

The chains behind the UniProt entries cited, without tags or fusion partners. Where a name states a change or a piece, a line headed by the entry shows the natural chain unless it says otherwise.
UniProt P35637: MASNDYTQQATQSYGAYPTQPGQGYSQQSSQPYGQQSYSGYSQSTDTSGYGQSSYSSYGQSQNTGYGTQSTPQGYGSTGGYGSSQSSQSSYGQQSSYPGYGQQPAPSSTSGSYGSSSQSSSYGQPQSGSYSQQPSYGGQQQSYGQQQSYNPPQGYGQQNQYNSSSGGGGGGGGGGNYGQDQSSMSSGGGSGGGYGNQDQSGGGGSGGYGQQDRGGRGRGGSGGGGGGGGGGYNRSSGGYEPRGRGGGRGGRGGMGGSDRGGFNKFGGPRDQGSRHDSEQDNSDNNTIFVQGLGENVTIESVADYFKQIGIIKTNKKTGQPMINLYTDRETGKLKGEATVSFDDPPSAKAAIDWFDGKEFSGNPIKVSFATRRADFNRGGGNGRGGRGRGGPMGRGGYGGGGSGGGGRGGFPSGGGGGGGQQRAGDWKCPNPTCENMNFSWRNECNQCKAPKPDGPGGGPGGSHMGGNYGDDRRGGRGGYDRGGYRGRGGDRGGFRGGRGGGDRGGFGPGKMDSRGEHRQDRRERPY

Tests used:
[1] = molecular target: T1, DNAJB14-FL-FLAG (human) (UniProt Q8TBM8); experiment: co-IP; HEK293T cells co-transfected with FLAG-tagged DNAJB14 forms and DNAJB12-FL-mOrange; lysis in 50 mM HEPES pH 7.9, 0.5% Triton X-100, 5% glycerol, 150 mM NaCl, 2 mM EDTA; anti-FLAG M2 beads 3 h at 4 °C, 7 washes; blot with anti-RFP for mOrange, normalised to the FLAG band
T1 sequence: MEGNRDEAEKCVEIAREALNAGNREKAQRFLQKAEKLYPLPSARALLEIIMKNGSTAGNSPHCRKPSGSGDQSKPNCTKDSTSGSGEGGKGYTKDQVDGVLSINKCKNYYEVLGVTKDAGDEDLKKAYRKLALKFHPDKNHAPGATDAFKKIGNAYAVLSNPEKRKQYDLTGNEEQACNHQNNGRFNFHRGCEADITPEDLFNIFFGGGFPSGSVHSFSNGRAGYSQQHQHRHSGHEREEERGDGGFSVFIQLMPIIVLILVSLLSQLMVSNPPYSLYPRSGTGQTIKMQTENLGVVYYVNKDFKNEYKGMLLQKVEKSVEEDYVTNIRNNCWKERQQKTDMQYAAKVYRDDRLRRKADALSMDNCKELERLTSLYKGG

[2] = molecular target: FUS-WT-YFP (human) (UniProt P35637); experiment: co-IP; HEK293T cells co-transfected with FUS-R521H-YFP or FUS-WT-YFP and FLAG-tagged DNAJB14 forms; RIPA lysis; anti-GFP antibody cross-linked to Dynabeads Protein A, overnight at 4 °C, 4 washes with RIPA; blot with anti-FLAG
[3] = molecular target: FUS-R521H-YFP (human) (UniProt P35637); experiment: as above

binding [1]: binds
B1: DNAJB12-FL-mOrange (protein, UniProt Q9NXW2-1 1-375)
chain: MESNKDEAERCISIALKAIQSNQPDRALRFLEKAQRLYPTPRVRALIESLNQKPQTAGDQPPPTDTTHATHRKAGGTDAPSANGEAGGESTKGYTAEQVAAVKRVKQCKDYYEILGVSRGASDEDLKKAYRRLALKFHPDKNHAPGATEAFKAIGTAYAVLSNPEKRKQYDQFGDDKSQAARHGHGHGDFHRGFEADISPEDLFNMFFGGGFPSSNVHVYSNGRMRYTYQQRQDRRDNQGDGGLGVFVQLMPILILILVSALSQLMVSSPPYSLSPRPSVGHIHRRVTDHLGVVYYVGDTFSEEYTGSSLKTVERNVEDDYIANLRNNCWKEKQQKEGLLYRARYFGDTDMYHRAQKMGTPSCSRLSEVQASLHG

binding [2]: binds | binding [3]: binds
B2: DNAJB14-FL-FLAG (protein, UniProt Q8TBM8-1 1-379)
chain: T1 sequence
